Article doi:10.1101/2019.12.11.873422
These are yes or no findings as the source states them, for the method shown. In cells and extracts the contact can be indirect. Some binding calls cover weakened binding; strength is not graded here.

Sequences of proteins named here, by UniProt entry; tags and fusion partners are left off.
UniProt Q15554: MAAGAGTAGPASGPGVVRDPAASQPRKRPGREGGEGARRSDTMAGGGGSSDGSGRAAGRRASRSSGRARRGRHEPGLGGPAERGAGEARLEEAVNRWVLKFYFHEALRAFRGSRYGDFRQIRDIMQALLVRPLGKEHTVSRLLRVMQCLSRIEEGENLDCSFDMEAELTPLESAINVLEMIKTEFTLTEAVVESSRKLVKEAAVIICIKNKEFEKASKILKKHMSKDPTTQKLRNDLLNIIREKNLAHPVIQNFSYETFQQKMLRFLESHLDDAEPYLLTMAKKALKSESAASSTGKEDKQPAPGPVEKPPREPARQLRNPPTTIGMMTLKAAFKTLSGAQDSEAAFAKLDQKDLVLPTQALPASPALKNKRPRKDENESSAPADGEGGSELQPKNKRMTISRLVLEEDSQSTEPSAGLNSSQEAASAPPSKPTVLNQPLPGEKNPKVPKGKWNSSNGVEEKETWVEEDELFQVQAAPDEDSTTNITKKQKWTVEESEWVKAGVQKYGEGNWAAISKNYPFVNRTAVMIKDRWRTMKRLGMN
UniProt P13010: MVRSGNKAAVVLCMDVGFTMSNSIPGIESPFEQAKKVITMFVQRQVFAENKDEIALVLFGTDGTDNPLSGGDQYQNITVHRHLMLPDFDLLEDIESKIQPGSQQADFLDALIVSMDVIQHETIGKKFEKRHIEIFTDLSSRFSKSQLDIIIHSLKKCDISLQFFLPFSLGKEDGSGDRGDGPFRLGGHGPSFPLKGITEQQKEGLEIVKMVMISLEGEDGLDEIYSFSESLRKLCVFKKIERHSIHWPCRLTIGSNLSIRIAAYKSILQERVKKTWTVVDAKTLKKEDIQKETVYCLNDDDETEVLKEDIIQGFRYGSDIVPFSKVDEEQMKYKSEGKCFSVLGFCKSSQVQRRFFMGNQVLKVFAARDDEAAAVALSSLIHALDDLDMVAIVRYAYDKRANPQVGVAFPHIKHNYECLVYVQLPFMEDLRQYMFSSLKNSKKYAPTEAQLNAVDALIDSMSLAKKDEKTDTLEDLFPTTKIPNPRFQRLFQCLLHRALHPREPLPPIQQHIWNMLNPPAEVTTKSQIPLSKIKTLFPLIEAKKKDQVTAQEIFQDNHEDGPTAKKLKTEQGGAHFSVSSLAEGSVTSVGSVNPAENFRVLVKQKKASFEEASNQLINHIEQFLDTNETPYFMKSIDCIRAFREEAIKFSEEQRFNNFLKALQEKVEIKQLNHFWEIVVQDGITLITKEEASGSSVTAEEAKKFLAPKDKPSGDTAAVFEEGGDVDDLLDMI

Biological target: endogenous TRF2 (human (endogenous in Flp-In T-REx 293)) (UniProt Q15554)
Assay: co-IP

binding: binds
Substance: Myc-Ku80 WT (from UniProt P13010 1-732)
